Measured values as given in publication PMC8722725.
No constants are given. Whether binding was seen depends on the method and setting. In cells and extracts the contact can be indirect. Some entries that bind do so weakly or less than the wild type. Tags and fused reporters may be left off the sequences shown.

By UniProt entry, the sequences of proteins in these tests, tags left out.
UniProt Q13148: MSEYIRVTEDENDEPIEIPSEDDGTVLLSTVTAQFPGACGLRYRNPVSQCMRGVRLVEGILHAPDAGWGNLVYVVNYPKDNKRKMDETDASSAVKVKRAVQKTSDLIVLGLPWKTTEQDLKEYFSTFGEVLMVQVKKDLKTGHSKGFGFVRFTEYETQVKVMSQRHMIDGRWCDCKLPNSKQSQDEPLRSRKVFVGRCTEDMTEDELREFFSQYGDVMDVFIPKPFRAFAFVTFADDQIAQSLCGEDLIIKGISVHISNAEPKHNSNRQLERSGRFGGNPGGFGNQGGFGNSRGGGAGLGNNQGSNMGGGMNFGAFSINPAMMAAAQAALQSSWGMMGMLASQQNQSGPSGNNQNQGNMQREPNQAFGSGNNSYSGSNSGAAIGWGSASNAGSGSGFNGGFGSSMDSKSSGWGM

Target: mCherry-TDP-43 (UniProt Q13148)
Experiment: co-IP; RFP-Trap agarose beads on lysate of HeLa cells co-transfected with mCherry-TDP-43 and SIRT2-GFP variants; blot for TDP-43 and GFP

B1: GFP-tagged SIRT2 (SIRT2-GFP), wild type (enzyme, UniProt Q8IXJ6 1-389)
chain: MAEPDPSHPLETQAGKVQEAQDSDSDSEGGAAGGEADMDFLRNLFSQTLSLGSQKERLLDELTLEGVARYMQSERCRRVICLVGAGISTSAGIPDFRSPSTGLYDNLEKYHLPYPEAIFEISYFKKHPEPFFALAKELYPGQFKPTICHYFMRLLKDKGLLLRCYTQNIDTLERIAGLEQEDLVEAHGTFYTSHCVSASCRHEYPLSWMKEKIFSEVTPKCEDCQSLVKPDIVFFGESLPARFFSCMQSDFLKVDLLLVMGTSLQVQPFASLISKAPLSTPRLLINKEKAGQSDPFLGMIMGLGGGMDFDSKKAYRDVAWLGECDQGCLALAELLGWKKELEDLVRREHASIDAQSGAGVPNPSTSASPKKSPPPAKDEARTTEREKPQ
For B1, the binding was “binds”.
